# Assay results from PubChem BioAssay AID540276 (National Center for Advancing Translational Sciences (NCATS), 2011).
# Where “and” joins values, the source holds several entries; their conditions need not be identical. Equal entries are not always repeated. The whole screen tested about 300,000 compounds, of which about 5,400 (1.8%) were called active. The shares of active, inactive and inconclusive entries below differ from those in the screen. Calls follow the shape of the full dose curve; tested in HEK293 cells. Potencies of inconclusive entries are doubtful fits and often do not repeat.
# Assay: qHTS for inhibitors of binding or entry into cells for Marburg Virus
# Details: Marburg virus pseudotyped entry inhibition, cell reporter; activity change, negative = inhibition: at 37.8 µM (top of the series) unless noted
# % is scaled to controls: 0 for no effect and ±100 for the full control effect; potency is read from the fitted curve at half-maximal effect.
SMILES,Potency,"activity change, negative = inhibition"
Cc1nn(C)c(C)c1/C=N/N=C1\CCC2C3CCc4cc(O)ccc4C3CCC12C (stereo not given),"inconclusive: 22.4 µM [activator, single point]",–
Cc1ccc(C)n1-n1c(C)nc2sc(-c3ccccc3)cc2c1=O,"inconclusive: 35.5 µM [inhibitor, single point]",–
CCC(C)(C)n1nnnc1C(c1ccc(C)cc1)N1CCN(Cc2cccnc2)CC1 (stereo not given),"inconclusive: 7.08 µM [inhibitor, full curve, poor fit]",–
CCOP(=O)(OCC)c1nc(-c2ccc(Cl)cc2Cl)oc1N1CCCCC1,"inconclusive: 20 µM [inhibitor, partial curve, poor fit]",–
Cc1ccccc1OCC(=O)Nc1ccccc1N1CCCCC1,"inconclusive: 29.1 µM [inhibitor, single point]",–
Cc1ccc2cc(C)c(SCC(=O)NCc3ccco3)nc2c1,"inconclusive: 35.5 µM [inhibitor, single point]",–
O=S(=O)(NCC1CCN(c2ccc(S(=O)(=O)N3CCOCC3)cc2)CC1)c1ccccc1,"inconclusive: 35.5 µM [inhibitor, single point]",–
COc1ccc(Cl)cc1NC(=O)CCN1CCN(C)CC1,"inconclusive: 0.112 µM [activator, full curve, poor fit]",–
Cc1ccc(C)c(Nc2c([N+](=O)[O-])cc(C(=O)N3CC(=O)Nc4ccccc43)cc2[N+](=O)[O-])c1,"inconclusive: 22.4 µM [inhibitor, single point]",–
COc1cc(NC(=O)COC(=O)CNC(=O)c2ccc(C)s2)cc(OC)c1,"inconclusive: 6.31 µM [activator, single point]",–
COc1ccc(-c2nc3ccccc3c(=O)n2CCOc2ccccc2C)cc1,–,inactive: 18.9%
Nc1c(-c2ccc3c(c2)OCCO3)oc2ccccc2c1=O,"inconclusive: 35.5 µM [inhibitor, single point]",–
Nc1c2c(nc3cccc(Cl)c13)N(c1ccccc1)CC2,"inconclusive: 35.5 µM [activator, single point]",–
CCOc1nc(Nc2ccc(F)cc2)nc(N2CCN(c3ccc(OC)cc3)CC2)n1,–,inactive: -3.79%
COC1=C[C@H](C(=O)NCCNC(C)=O)[C@H](C)[C@@H](c2ccccc2)CC1=O,"inconclusive: 5.96 µM [inhibitor, single point]",–
COc1ccc(NC(=O)c2cc(-c3cccnc3)nc3ccc(C)cc23)cc1OC,"inconclusive: 10.3 µM [inhibitor, single point]",–
CN(C)S(=O)(=O)N1CCc2ccc(NC(=O)c3ccccc3Cl)cc2C1,–,inactive: 20.7% [at 46.1 µM]
O=C(NC(NC(=O)c1ccccc1)c1cccc([N+](=O)[O-])c1)c1ccccc1,"inconclusive: 0.058 µM [inhibitor, partial curve, poor fit]",–
CC(/C=C/c1ccccc1)=N\Nc1nc(-c2ccccc2)cs1,–,inactive: -6.68%
CCC(=O)NC(=S)Nc1ccc(NC(=O)c2cc3ccccc3o2)c(OC)c1,"inconclusive: 3.98 µM [inhibitor, full curve, poor fit]",–
COc1cccc(NC(=O)COC(=O)/C=C/c2ccc(Cl)cc2Cl)c1,"inconclusive: 4.47 µM [activator, single point]",–
Cc1cc(C)c(-n2c(O)c(/C=N/NC(=O)c3ccncc3)c(=O)[nH]c2=O)c(C)c1,"inconclusive: 3.16 µM [inhibitor, single point]",–
CC(=O)c1ccc(NC(=O)c2cc3sccc3n2Cc2ccc(Cl)cc2)cc1,–,inactive: 2.14% [at 46.1 µM]
COc1ccc(S(=O)(=O)NCC2CCCO2)cc1NC(=O)c1ccc(Cl)cc1 (stereo not given),"inconclusive: 5.62 µM [inhibitor, single point]",–

SMILES,Potency,"activity change, negative = inhibition"
Oc1ccccc1C=NNC(=S)Nc1ccc(F)cc1,"inconclusive: 10 µM [inhibitor, partial curve, poor fit]",–
O=C(NCCOc1ccc(Cl)cc1)c1ccc2ccccc2n1,"inconclusive: 12.6 µM [inhibitor, partial curve, poor fit]",–
CCOC(=O)C1=C(C)OC(N)=C(C#N)C1c1cc(SCC)oc1C (stereo not given),–,inactive: -12.8% [at 46.1 µM]
Cc1ccc(NC(=S)N/N=C/c2cccn2Cc2ccccc2F)cc1,–,inactive: -12.4% [at 46.1 µM]
COc1cc(NS(=O)(=O)c2ccc(NC(=O)C3CCCO3)cc2)nc(OC)n1 (stereo not given),–,inactive: 23.9%
Cc1cccc(C(=O)NC(NCCc2ccccc2)C(Cl)(Cl)Cl)c1 (stereo not given),"inconclusive: 16.4 µM [inhibitor, partial curve, poor fit]",–
CC(Oc1ccc(Cl)cc1)C(=O)Nc1ccc(S(=O)(=O)N2CCOCC2)cc1 (stereo not given),–,inactive: -0.672% [at 46.1 µM]
O=C(/C=C/c1cccs1)Nc1cccnc1,"inconclusive: 3.16 µM [activator, partial curve, poor fit]",–
N/C(=N\OC(=O)c1ccc2ccccc2c1)c1ccc(Br)cc1,"inconclusive: 3.16 µM [activator, single point]",–
Cc1ccc(NC(=O)COC(=O)CSCC(=O)Nc2cc(C)on2)c(C)c1,"inconclusive: 0.562 µM [inhibitor, full curve]",–
CN(C)CCCNC(=S)N(Cc1cccs1)Cc1cc2cc3c(cc2[nH]c1=O)OCCO3,active: 23.1 µM,–
Cc1ccc(NC(=O)C2=CCN(S(=O)(=O)c3ccc(F)cc3)CC2)c(C)c1,"inconclusive: 29.1 µM [activator, single point]",–
Cn1ccnc1SCC(=O)Nc1ccc(Br)cc1C(F)(F)F,"inconclusive: 7.08 µM [activator, partial curve]",–
Cc1cccc(C(=O)N2CCc3cc(-c4csc(NC(=O)CN5CCCC5)n4)ccc32)c1,"inconclusive: 22.4 µM [inhibitor, single point]",–
Cc1cccc(N(CC(O)CN(C)C)S(=O)(=O)c2ccccc2)c1 (stereo not given),"inconclusive: 7.08 µM [inhibitor, partial curve, poor fit]",–
O=C(CN1C(=O)c2ccccc2C1=O)NC1CCCCC1,"inconclusive: 12.6 µM [activator, single point]",–
COc1ccc(S(=O)(=O)Nc2cc(OC)c(NC(=O)c3ccco3)cc2OC)cc1,–,inactive: -28%
Cc1ccc(C=Nc2ccccc2C#N)s1,–,inactive: 0.971%
CC1CCCCN1C(=O)CSc1nc2ccsc2c(=O)n1Cc1ccccn1 (stereo not given),–,inactive: 15.4%
COCCn1c(=S)[nH]c2cc(C(=O)NCCc3ccccc3)ccc2c1=O,"inconclusive: 3.16 µM [activator, full curve]",–
CN(C)S(=O)(=O)c1ccc(C(=O)Nc2ccccc2[N+](=O)[O-])cc1,–,inactive: 0.0002%
COc1ccc(CNc2oc(/C=C/c3cc(OC)c(OC)c(OC)c3)nc2C#N)cc1,–,inactive: -14.6% [at 46.1 µM]
COc1ccc(CCNC(=O)c2ccc(=O)[nH]c2)cc1OC,"inconclusive: 0.355 µM [inhibitor, partial curve, poor fit]",–
COc1ccc(C)cc1-n1nnc(S(=O)(=O)c2ccc(C)cc2)c1C,–,inactive: -2.58% [at 46.1 µM]

SMILES,Potency,"activity change, negative = inhibition"
COc1ccc2c(C)c(CCC(=O)NCc3ccccc3OC)c(=O)oc2c1,–,inactive: -20.9% [at 46.1 µM]
CC(=O)Nc1nnc(SCc2ccccc2F)s1,–,inactive: 17.2%
COc1ccc(OC)c(C2C3=C(COC3=O)Nc3cc4c(cc32)OCO4)c1 (stereo not given),active: 0.259 µM,–
NC(=O)c1ccccc1NC(=O)C1CCCO1 (stereo not given),"inconclusive: 17.8 µM [activator, partial curve, poor fit]",–
Cc1cc(C)cc(NC(=S)N2CCC(NC(=O)c3ccccc3C)CC2)c1,"inconclusive: 0.355 µM [inhibitor, full curve, poor fit]",–
CCN1CCc2nc3sc(C(=O)Nc4ccccc4OC(F)(F)F)c(N)c3cc2C1,"inconclusive: 10 µM [inhibitor, partial curve, poor fit]",–
COc1ccc(CCNC(=O)C2CCN(S(=O)(=O)c3cccc4nsnc34)CC2)cc1OC,inactive,–
Cc1cc(C)c(NC(=O)CSC2=Nc3ccccc3C3=NC(CC(=O)NCc4cccs4)C(=O)N23)c(C)c1 (stereo not given),–,inactive: 20.3% [at 46.1 µM]
O=C(O)c1ccccc1CSc1ccccn1,–,inactive: -14.7% [at 46.1 µM]
Cc1cc(=O)c2cc(C(=O)Nc3ccc(F)cc3)ccc2[nH]1,–,inactive: 5.2% [at 46.1 µM]
Cc1nn(-c2ccccc2)c(Cl)c1/C=N/NC(=O)c1ccccc1NS(=O)(=O)c1cccs1,–,inactive: 0.493%
CC(C)c1ccc2c(c1)c(SC(C)(C)C)c(CC(C)(C)C(=O)O)n2Cc1ccc(Cl)cc1,active: 11.2 µM and active: 6.51 µM,–
Cc1ccc(N2CC(C(=O)OCC(=O)Nc3cccc(Cl)c3C)CC2=O)cc1 (stereo not given),"inconclusive: 3.98 µM [inhibitor, full curve, poor fit]",–
Cc1ccc(NCc2ccccc2OCc2ccccc2F)cc1,"inconclusive: 1.83 µM [inhibitor, full curve, poor fit]",–
COc1cc(/C=N/NC(=O)c2cccc3ccccc23)cc(OC)c1OC,"inconclusive: 0.891 µM [inhibitor, full curve, poor fit]",–
O=C(CN1c2ccc(Br)cc2-c2ccccc2S1(=O)=O)N1CCCCC1,"inconclusive: 7.08 µM [activator, single point]",–
CCOc1ccc2nc(N/C(N)=N/C(=S)Nc3cccc(OC)c3)nc(C)c2c1,"inconclusive: 4.47 µM [inhibitor, full curve, poor fit]",–
Cn1c(=O)c2c(-c3ccccc3F)c3c(nc2n(C)c1=O)-c1ccccc1C3O (stereo not given),–,inactive: 18.8%
CCCOC(=O)c1ccc(NC(=O)c2c(Cl)ccc(Cl)c2OC)cc1,"inconclusive: 10 µM [inhibitor, partial curve]",–
O=C(Oc1oc(-c2ccco2)nc1C=Nc1ccccc1)c1ccco1,"inconclusive: 35.5 µM [activator, single point]",–
COc1ccc(/C=C/C(=O)NCCCc2ccccc2)cc1,–,inactive: 20.7%
CN(C)/C=N/c1nc(Sc2ccc(C(F)(F)F)cc2[N+](=O)[O-])n[nH]1,–,inactive: -2.65%
